Test results: patent US20240182561A1, “CALCIUM VOLTAGE-GATED CHANNEL AUXILIARY SUBUNIT GAMMA 1 (CACNG1) BINDING PROTEINS AND CACNG1-MEDIATED DELIVERY TO SKELETAL MUSCLE” (Regeneron Pharmaceuticals, Inc., priority 2022, published 2024)
At least one structure is not confirmed: it was looked up by name or label, or the drawing left a doubt.

System: human myotubes
Test: Calcium flux assay on human myotubes (acetylcholine-induced calcium release, FLIPR)
Format: cell-based
Conditions: 1 hour pre-incubation, 20 μM acetylcholine; FIG. 1

Q: `COC(=O)C1=C(C)NC(C)=C(C(=O)OCCN(C)Cc2ccccc2)C1c1cccc([N+](=O)[O-])c1` (stereo not shown) [nicardipine] was tested. Which “acetylcholine-induced human myotube calcium release (calcium flux)” value did it give?
A: Its value is “substantially reduced”.
